Library screening results

From ChEMBL document CHEMBL3988442, “University of Dundee, Small-Polar-MMV Screening Library” (2021).

Each number is a percent effect as filed.
How 0% and 100% were set is not recorded. Most values in the screen are low, and negative values occur.
The compounds are a random part of those screened.

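Assay on Mycobacterium tuberculosis, filed only as a heat shock assay from Cornell; the read-out is not stated. The concentration is filed as 10 mM, unlikely as a test dose, so the dose is not known. The record gives no direction; compounds that gave an IC50 in retests scored well above the rest, so higher reads as stronger inhibition. Of about 69,000 compounds tested this way, about 930 (1.4%) reached 50% or more in at least one test.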

compound | Percent Effect
O=C(NCC1(Sc2ccccc2)CC1)c1cc[nH]n1 | 8.186
O=C1CCCN1CCN1CCCCC1Cn1cncn1 (stereo unspecified) | -2.61
CC(C)N1C(=O)CN(CCOCCO)CC1(C)C | 0.813
CCOc1cccc(CN2CCCC(Nc3ccc(F)cc3)C2)c1O (stereo unspecified) | -10.1
Cn1ncc2cnn(CC(O)COCc3ccccc3Cl)c2c1=O (stereo unspecified) | 4.968
CNS(=O)(=O)c1ccc(CN(C)Cc2nc3ccc(F)cc3[nH]2)cc1 | -14.46
O=C(O)C(F)(F)F.[H][C@@]12C[C@H](C(=O)NC)CN(CC3CCOCC3)[C@]1([H])CCO2 | -4.352
CCCn1ccnc1CN1CCN(C2CCOCC2)CC(C(N)=O)C1 (stereo unspecified) | 3.094
Cc1n[nH]c(C2CN(CCNC3CCCCC3)CCO2)n1 (stereo unspecified) | -5.501
CC(Cn1ccnc1)NS(=O)(=O)Cc1ccc(F)cc1 (stereo unspecified) | 9.513
CCc1nc(CN2CCC(C(=O)N(C)C)CC2)cs1 | -3.382
CSc1nccc(NCC2CNCCO2)n1 (stereo unspecified) | -4.72
CN(Cc1cn2c(n1)CN(Cc1ccsc1)CC2)Cc1ccco1.O=C(O)C(F)(F)F.O=C(O)C(F)(F)F | -13.52
COCCN1CCC1c1cc(N)nc(C)n1 (stereo unspecified) | 17.97
CC(C)c1ncc2c(n1)CN(CCCc1nc3ccccc3o1)CC2 | 15.73
O=C(NCCNc1ccccn1)NCC1CCS(=O)(=O)C1 (stereo unspecified) | -43.78
c1ccc2c(N3CCCCC3Cn3cccn3)ncnc2c1 (stereo unspecified) | -17.94
O=C(c1scc2c1OCCO2)N1CCC(Cc2cccc(CO)c2)C1 (stereo unspecified) | -10.63
COc1cccc(CCNC(=O)NC(C)C)c1O | -22.65
CCC(=O)N1CSCC1C(=O)Nc1ccccc1-c1cccs1 (stereo unspecified) | 20.66
Cc1nn(C)cc1C(=O)NCc1csc(C2CC2)n1 | -3.929
CCc1cc(NCCCNS(C)(=O)=O)nc(-c2ccccn2)n1 | 56.84
O=C1CC(c2ccncc2)c2c(sc3c2CCCC3)N1 (stereo unspecified) | -10.12
[H][C@@]12C[C@@H](C(=O)NC)N(C(C)C)[C@]1([H])CN(C(=O)c1ccccn1)C2 | -17.02
CC(NC(=O)NCCCn1cccn1)c1ccccn1 (stereo unspecified) | -35.16
CC(C)(C)CC(=O)NC[C@H]1OC[C@@H](NC2CCC(F)(F)CC2)[C@@H]1O | -1.341
COc1cccc(C(=O)NCC(O)c2cccs2)c1 (stereo unspecified) | 8.13
O=C(c1ccn(-c2ccc(F)cc2)n1)N(CCO)Cc1cccnc1 | -9.662
CCC(NC(=O)CNCC(F)(F)F)c1cc(F)ccc1F (stereo unspecified) | 23.58
Cn1cc(S(=O)(=O)N2CCCC(Cn3cncn3)C2)cn1 (stereo unspecified) | -15.84
[H][C@]12CCN(C(=O)c3ccccc3C)C[C@@]1([H])OCCN(c1ncccn1)C2 | 0.6732
CCc1ccc(C(=O)NC(C)c2ccc(S(C)(=O)=O)c(F)c2)o1 (stereo unspecified) | 3.78
CC(=O)NCCCSC1CCN(c2ccccc2F)C1=O (stereo unspecified) | -8.215
Cc1n[nH]c2nc(-c3cccc(Cl)c3)cc(C(=O)O)c12 | 18.7
Cc1nn(C)c2ncc(NC(=O)N(C)Cc3cc(Cl)cn3C)cc12 | -0.748
CSCC(=O)N(C)Cc1ccc(N(C)C)cc1 | -8.556
C[C@@H]1CN(C(=O)C2CCS(=O)(=O)CC2)C[C@]1(C)O | 8.161
FC(F)(F)Oc1cccc(CNC[C@H]2Cn3ccnc3CO2)c1 | -14.83
O=C(NCCNc1ncccn1)N1CCN(c2nccs2)CC1 | -9.002
CN(Cc1cc2cc(F)ccc2[nH]1)C(=O)C1CC(=O)N(C2CCCC2)C1 (stereo unspecified) | 14.62
Cc1cnn(CCNCc2nc(COc3ccc(F)cc3)no2)c1 | 0.9811
COCC(=O)N(Cc1ccc2[nH]ccc2c1)C1CC1 | -20.42
O=C(NCCn1nc2ccccn2c1=O)c1cc[nH]n1 | 6.353
CS(=O)(=O)N1Cc2nccn2CC(CN2CCCC2=O)C1 (stereo unspecified) | 15.79
O=C(c1cn2ccsc2n1)N1CCOCC(O)(CN2CCCC2)C1 (stereo unspecified) | -23.85
O=C(c1cc(=O)n(-c2ccccc2)[nH]1)N1CCCC(c2ccn[nH]2)C1 (stereo unspecified) | -10.73
O=C(O)C(F)(F)F.O=C(O)C(F)(F)F.[H][C@@]12C[C@@H](OCc3ccccn3)CN1CCN(C(=O)c1ccc(F)cc1)C2 | 3.711
O=C(Cc1ccccc1)N1CC(=O)N(Cc2ccco2)CC(O)C1 (stereo unspecified) | 34.26
CC(C)N(CC(N)=O)CC(=O)N(C1=CCCCC1)C1CC1 | -21
O=C(O)C(F)(F)F.O=C(O)C(F)(F)F.[H][C@@]12C[C@@H](Oc3cncnc3)CN1CCN(C(=O)Cc1ccccn1)C2 | 3.514
CCC1CN(C(=O)c2cncc(C)c2)CCC(=O)N1Cc1ccccc1 (stereo unspecified) | 0.5365
CCN1CC(C(=O)N2CCN(CCn3cccc3)CC2)CC1=O (stereo unspecified) | -20.31
CC(C)c1nnc2n1CCN(C(=O)c1cc3cc(F)ccc3[nH]1)C2 | -4.225
COC(CNC(=O)c1cc(C)on1)c1ccccc1C (stereo unspecified) | -5.554
Cc1csc(N(C)C(=O)C2CC(=O)N(CCc3ccccc3)C2)n1 (stereo unspecified) | -1.847
COc1cccc(CC(=O)N2CCC(NCc3c[nH]nc3C)CC2)c1 | 17.79
OCC1(Cc2ccc(F)cc2F)CCCN(Cc2ccncc2)C1 (stereo unspecified) | -2.351
O=C(c1nnn(-c2ccccc2)n1)N(CCO)CCO | -8.713
Cc1ccc(-c2nc(CNC3CCc4ncnn4C3)cs2)cc1 (stereo unspecified) | 7.874
Cc1cc(CN2CCOCS2(=O)=O)ccc1F | -15.27
CS(=O)(=O)NCCCN1CCCCC1c1cc2ccccc2[nH]1 (stereo unspecified) | -14
CCN1CCCN(S(=O)(=O)c2cc3ccccc3o2)CC1 | -4.267
CCN1CC2(CC1=O)CN(C(C)=O)CCN(C(=O)NC)C2 (stereo unspecified) | 21.48
COCCCNc1c(C#N)c2c(c3nncn13)CN(C)CC2.Cl | -14.7
Cc1cc(N2CCCC2(C)c2nc(C)cc(C(=O)N(C)C)n2)ncn1 (stereo unspecified) | -5.122
Cc1cc(CN(C)C(=O)c2ccc(Cl)cc2N2CCCC2=O)no1 | -8.124
CCc1cnc(N)nc1NCCCN1CCCCC1CO (stereo unspecified) | -8.937
CNC(=O)c1sc(C2CCCC2)nc1C | 10.96
CC(C)c1nc(CC(=O)N2CCN(C)CC2c2ccccc2)cs1 (stereo unspecified) | -19.94
CCCc1noc(CN2CCC(C(=O)Nc3cnn(CC)c3)CC2)n1 | 3.96
Cc1noc(C)c1CCC(=O)N1CCCN(Cc2cscn2)CC1 | 9.671
CCNC(=O)c1nnn(Cc2ccccc2)c1OC | 23.74
CN1CCN(S(=O)(=O)c2cccc(F)c2)Cc2cccnc21.O=C(O)C(F)(F)F | 36.39
Cn1ccnc1CN1CCC2(CC1)COC2.O=C(O)C(F)(F)F | 6.701
COc1c(CNCc2ccc(N3CCOCC3)nc2)c(C)nn1C | 5.54
COc1cc2ccccc2cc1C(=O)N1CCCC(c2nncn2C)C1 (stereo unspecified) | 3.625
Cc1ccc(-n2cc(C)cn2)c(NC(=O)NC2(C)CCOC2)c1 (stereo unspecified) | 1.051
Cc1ccc(CN2CCOC3(CCN(C(=O)C4CC=CC4)CC3)C2)cc1.O=C(O)C(F)(F)F | -5.757
COCCOC[C@]1(CNCc2ccc(OC)cc2)C[C@@H](O)[C@@H](O)C1.Cl | -27.25
CC(C)c1cc(C(=O)NCC(O)C2CCOCC2)nn1C(C)(C)C (stereo unspecified) | -0.2525
CSc1ccc(-n2nnc(C(=O)O)c2-c2ccccn2)cc1 | 7.527
O=C1C(Nc2nccn3cnnc23)CCN1c1cccc(Cl)c1 (stereo unspecified) | -1.733
O=C(NCCN1CCCCC1)C(c1ccccc1)N1CCCC1 (stereo unspecified) | 7.063
O=C(NCCC1=CCCCC1)NCc1nnc2n1CCC2 | -20.36
COCCn1cc2c(n1)C(CNCc1cccc(OC)c1)OCC2.O=C(O)C(F)(F)F (stereo unspecified) | -15.92
COCCNC(=O)C1CN(Cc2cccc(C)n2)Cc2ccnn2C1.O=C(O)C(F)(F)F.O=C(O)C(F)(F)F (stereo unspecified) | 2.094
Cc1cnn(CC2CCCCN2C(=O)c2ccc(CN(C)C)cc2)c1 (stereo unspecified) | 13.99
CCN1CCC2(CC1)CC(NCc1cccc(C)n1)c1ccccc1O2.O=C(O)C(F)(F)F.O=C(O)C(F)(F)F.O=C(O)C(F)(F)F (stereo unspecified) | -23.46
Cc1cc(C(=O)N(C)C)c2c(Br)cccc2n1 | 15.27
COCc1ccc(CNC(=O)C2=NN(c3ccccc3)C(=O)CN2)cc1 | 25.52

The last 10 entries again:

* CSc1ccc(-n2nnc(C(=O)O)c2-c2ccccn2)cc1 | 7.527%
* O=C1C(Nc2nccn3cnnc23)CCN1c1cccc(Cl)c1 (stereo unspecified) | -1.733%
* O=C(NCCN1CCCCC1)C(c1ccccc1)N1CCCC1 (stereo unspecified) | 7.063%
* O=C(NCCC1=CCCCC1)NCc1nnc2n1CCC2 | -20.36%
* COCCn1cc2c(n1)C(CNCc1cccc(OC)c1)OCC2.O=C(O)C(F)(F)F (stereo unspecified) | -15.92%
* COCCNC(=O)C1CN(Cc2cccc(C)n2)Cc2ccnn2C1.O=C(O)C(F)(F)F.O=C(O)C(F)(F)F (stereo unspecified) | 2.094%
* Cc1cnn(CC2CCCCN2C(=O)c2ccc(CN(C)C)cc2)c1 (stereo unspecified) | 13.99%
* CCN1CCC2(CC1)CC(NCc1cccc(C)n1)c1ccccc1O2.O=C(O)C(F)(F)F.O=C(O)C(F)(F)F.O=C(O)C(F)(F)F (stereo unspecified) | -23.46%
* Cc1cc(C(=O)N(C)C)c2c(Br)cccc2n1 | 15.27%
* COCc1ccc(CNC(=O)C2=NN(c3ccccc3)C(=O)CN2)cc1 | 25.52%